Screening data, single-dose tests

By UniProt entry, the sequences of proteins in these tests, tags left out.
UniProt P9WPC5, whole entry: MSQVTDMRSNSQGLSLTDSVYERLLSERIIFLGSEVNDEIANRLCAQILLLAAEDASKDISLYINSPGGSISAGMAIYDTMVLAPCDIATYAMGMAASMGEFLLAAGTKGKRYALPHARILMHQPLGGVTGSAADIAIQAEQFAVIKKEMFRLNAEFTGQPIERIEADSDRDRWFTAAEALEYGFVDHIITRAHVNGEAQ
UniProt P9WPC3, whole entry partner: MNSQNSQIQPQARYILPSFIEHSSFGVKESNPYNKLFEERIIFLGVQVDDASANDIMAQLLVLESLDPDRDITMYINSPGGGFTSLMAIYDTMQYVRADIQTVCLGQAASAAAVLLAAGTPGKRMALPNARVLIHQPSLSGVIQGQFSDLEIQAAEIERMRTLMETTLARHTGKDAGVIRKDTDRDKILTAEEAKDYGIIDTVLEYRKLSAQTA
UniProt I6X8D2, whole entry: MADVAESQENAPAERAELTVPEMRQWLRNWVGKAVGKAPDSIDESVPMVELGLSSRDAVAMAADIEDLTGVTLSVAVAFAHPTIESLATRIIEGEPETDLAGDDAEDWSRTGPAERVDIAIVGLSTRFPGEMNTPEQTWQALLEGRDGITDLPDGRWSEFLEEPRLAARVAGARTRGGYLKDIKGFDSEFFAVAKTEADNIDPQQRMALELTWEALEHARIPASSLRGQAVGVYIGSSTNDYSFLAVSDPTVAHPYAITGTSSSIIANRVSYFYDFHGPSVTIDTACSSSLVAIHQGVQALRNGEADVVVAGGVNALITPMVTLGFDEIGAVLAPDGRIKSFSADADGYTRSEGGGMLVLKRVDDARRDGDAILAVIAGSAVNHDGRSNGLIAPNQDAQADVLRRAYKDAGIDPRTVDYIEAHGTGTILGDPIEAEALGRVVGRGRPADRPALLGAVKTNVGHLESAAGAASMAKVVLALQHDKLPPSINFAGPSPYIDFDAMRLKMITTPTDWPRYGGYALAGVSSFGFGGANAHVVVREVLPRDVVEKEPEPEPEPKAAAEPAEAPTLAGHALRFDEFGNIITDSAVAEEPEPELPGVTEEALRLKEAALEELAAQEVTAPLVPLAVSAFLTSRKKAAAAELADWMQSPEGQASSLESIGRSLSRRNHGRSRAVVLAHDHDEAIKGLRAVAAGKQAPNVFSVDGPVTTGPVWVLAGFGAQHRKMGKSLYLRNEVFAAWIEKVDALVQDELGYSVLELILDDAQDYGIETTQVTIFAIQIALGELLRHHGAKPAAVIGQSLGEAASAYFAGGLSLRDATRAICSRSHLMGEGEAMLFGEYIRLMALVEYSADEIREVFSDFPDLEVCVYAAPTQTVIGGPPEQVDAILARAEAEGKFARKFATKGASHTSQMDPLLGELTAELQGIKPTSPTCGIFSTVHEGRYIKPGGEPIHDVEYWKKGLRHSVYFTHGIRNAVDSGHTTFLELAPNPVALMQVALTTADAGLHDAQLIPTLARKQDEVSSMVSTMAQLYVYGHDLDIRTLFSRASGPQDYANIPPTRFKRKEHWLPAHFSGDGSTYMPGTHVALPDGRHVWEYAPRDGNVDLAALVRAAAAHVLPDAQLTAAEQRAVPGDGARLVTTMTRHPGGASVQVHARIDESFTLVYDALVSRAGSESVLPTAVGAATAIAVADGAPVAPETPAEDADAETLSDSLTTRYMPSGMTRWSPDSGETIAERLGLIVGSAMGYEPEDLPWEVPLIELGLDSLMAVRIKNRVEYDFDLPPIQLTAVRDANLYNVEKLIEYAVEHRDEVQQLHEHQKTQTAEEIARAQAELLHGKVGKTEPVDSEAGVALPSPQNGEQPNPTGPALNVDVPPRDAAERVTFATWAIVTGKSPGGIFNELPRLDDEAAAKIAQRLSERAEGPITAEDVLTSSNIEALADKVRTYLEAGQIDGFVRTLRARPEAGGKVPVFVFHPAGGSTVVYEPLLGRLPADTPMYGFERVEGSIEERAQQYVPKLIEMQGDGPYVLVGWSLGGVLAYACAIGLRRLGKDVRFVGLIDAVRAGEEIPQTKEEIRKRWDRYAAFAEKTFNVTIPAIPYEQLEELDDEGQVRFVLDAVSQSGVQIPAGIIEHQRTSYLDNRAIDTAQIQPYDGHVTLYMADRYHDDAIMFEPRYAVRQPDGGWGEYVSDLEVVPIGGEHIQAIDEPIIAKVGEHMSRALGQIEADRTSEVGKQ

A: 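Protease assay of ClpP1P2, read by the AMC dye that it sets free. Target: ClpP1P2, Mycobacterium tuberculosis (UniProt P9WPC5 and UniProt P9WPC3). Compounds at 50 µM. Higher reads as stronger inhibition, judged from the few compounds that gave an IC50. Most other retested compounds had strongly negative values. Size under these conditions: about 69,000 compounds, about 10 of them at 50% or above in at least one test.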
B: 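Polyketide synthase Pks13, Mycobacterium tuberculosis (UniProt I6X8D2). Enzyme assay of the thioesterase domain of polyketide synthase 13; the read-out is not stated. Concentration: 30 µM. The record gives no direction; the compounds picked for IC50 retests had high values, so higher reads as stronger inhibition. Of about 67,000 compounds tested this way, about 300 (0.46%) reached 50% or more in at least one test.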

The filed quantity is “Percent Effect” (%). How 0% and 100% were set is not recorded. Most values in the screen are low, and negative values occur. Compounds were drawn at random from those tested, without regard to their results. A dash means the value is not listed here; it may have been measured.

compound	A	B
Cc1cc(C2CCCN2Cc2cc(=O)n(C)c(=O)n2C)no1 (configuration not stated)	-15.41%	-28.47%
CC(C)Cc1cc(NC(=O)c2cc(Cl)c[nH]2)n(C)n1	-10.29%	-5.999%
Cc1nn(CCC#N)c(C)c1CCC(=O)N(C)C	7.784%	-
NC(=O)C1CN(c2ccc3cc(Br)ccc3n2)CCO1 (configuration not stated)	-17.57%	3.223%
O=C1CN(CC2CC2)Cc2nc(NCc3ccccc3)sc21	-13.08%	-9.378%
Cc1nnc2n1CCN(CC(=O)NC(C)c1cc3ccccc3o1)C2 (configuration not stated)	8.934%	-11.33%
O=C(CN1C(=O)CCC1=O)N1CCC(S(=O)(=O)Cc2ccco2)CC1	-2.309%	-10.38%
O=C(CCc1cccnc1)N1CCC2(CCN(CC3CCCC3)C2)C1 (configuration not stated)	13.08%	-9.375%
O=C(c1ccncc1F)N1CCc2onc(COc3cccnc3)c2C1	6.234%	-571.6%
COCC(c1cccc(C(F)(F)F)c1)N(C)C(=O)c1cnccn1 (configuration not stated)	-21.72%	-2.914%
O=C(CSCC1CC1)N1CCCC(c2nccn2Cc2ccccn2)C1 (configuration not stated)	-4.817%	12.9%
CCN1N=C(C(=O)N2CCCC(c3nc(C)c(C)s3)C2)CCC1=O (configuration not stated)	12.83%	-22.3%
Cc1ccc(S(=O)(=O)NC(=O)c2c(C)noc2C(C)C)cc1C	-8.832%	-32.01%
Cc1nc(C)c(C(=O)N2CCCC2c2nnc3n2CCCCC3)s1 (configuration not stated)	7.569%	-14.42%
CCc1n[nH]c(C2CN(C(=O)Cc3cccs3)CCO2)n1 (configuration not stated)	4.915%	-11.65%
CC(C)N(C)C(=O)c1ccc(Cl)c(NC(=O)COCC2CC2)c1	-6.236%	-32.63%
c1cc(-c2c[nH]c([C@@H]3COCCN3Cc3ncc[nH]3)n2)ccn1	-8.792%	-6.884%
O=S(=O)(C1CC1)N1CCO[C@@H]2CC(COCc3cccnc3)C[C@H]21 (some centres not stated)	-0.3372%	13.77%
CCc1cnc2c(c1Nc1ccncc1)c(=O)n(C)c(=O)n2C	5.316%	-10.09%
C/C=C(\C)CN1C[C@@H](NC(=O)c2ccc(O)c(Cl)c2)C[C@H]1C(=O)NCC	-0.2798%	-40.24%
CC1COC2(CCN(C(=O)Cc3ccncc3)CC2)C1 (configuration not stated)	4.554%	-5.651%
O=C(NCc1cccnc1)C1=NOC2(CCN(C(=O)N3CCCC3)C2)C1 (configuration not stated)	7.743%	-30.04%
O=C1CO[C@H]2CN(Cc3cccc4[nH]ccc34)C[C@@H]2N1C1CCOCC1	-5.3%	24.28%
Cc1noc(C2CCCN(C(=O)c3ccc(Cl)cc3F)C2)n1 (configuration not stated)	-7.246%	-13.35%
CCCOc1ccc(C(=O)N[C@@H]2CCNC[C@H]2O)cc1Cl	-16.69%	0.2016%
CS(=O)(=O)N1Cc2ccccc2CC2(CCN(Cc3ccccc3)C2)C1 (configuration not stated)	-1.26%	-10.45%
CC(C(=O)N1CCCN(c2ccc(C#N)cc2)CC1)n1cccn1 (configuration not stated)	-44.23%	5.374%
Cc1noc(C(C)N2CCN(CCCN3CCCC3=O)CC2)n1 (configuration not stated)	11.44%	-9.127%
Cc1cc(C(=O)N(CCN(C)C)Cc2ccc(Cl)cc2)no1	-20.72%	-2.785%
Cc1cc(C(=O)N2CCc3nnc(N)cc3C2)c(C)n1-c1cccnc1	5.413%	14.18%
CN(Cc1nc(Cc2cccc(C(F)(F)F)c2)no1)C(C1CC1)C1CC1	-15.86%	-15.62%
CS(=O)(=O)N1CCC2(CCCN(Cc3ccccn3)C2)CC1	-3.404%	24.86%
O=C(Cn1cc(I)cn1)N1CCCCCC1	-5.982%	-11.43%
Cc1nnsc1C(=O)N1CCN(CC2CC2)[C@@H]2CS(=O)(=O)C[C@@H]21	7.97%	-16.89%
Cc1ccccc1C(C(=O)N(C)Cc1cnn(C)c1)N(C)C (configuration not stated)	-6.341%	-38.99%
c1cnc(N2CCO[C@H]3CN(Cc4c[nH]cn4)C[C@H]32)cn1	2.566%	-34.28%
CC(=O)N1C[C@@H](c2ccsc2)[C@@H]2CN(CC3CCCCC3)CC[C@@H]21	6.264%	17.98%
COCC1CN(Cc2ccc(C)o2)Cc2cn(C)nc21 (configuration not stated)	10.1%	-12%
CO[C@@]1(C)C[C@@H](O)C12CCN(C(=O)C1(c3ccccc3F)CC1)CC2	-17.6%	-15.94%
CCc1cc(CN(C)C(=O)c2nnc(CN(C)C)o2)on1	-2.777%	0.1326%
CCN(CC)CCNC(=O)CCc1c(C)nn(-c2cccc(Cl)c2)c1C	-24.34%	-260.7%
Cc1ncsc1C(=O)N(Cc1cccs1)C1CC1	-17.56%	-20.15%
CSc1nccn1-c1cccc(C(=O)NCC2CC2)c1	1.932%	-21.93%
CCCS(=O)(=O)NCc1cccnc1OCC	-17.86%	-2.205%
CC1(C(=O)N2CCC(n3cc(C4(O)CCCC4)nn3)CC2)CCCCC1	-2.608%	-39.04%
COCCN1C=NC2(CCC(C(=O)Nc3ccc(C)cc3)CC2)C1=O (configuration not stated)	7.104%	-25.33%
CN1CCCC1c1ccc(N2CCOCC2)cn1 (configuration not stated)	-13.83%	-5.95%
CC(C)[C@@H]1CN(CCOc2ccccc2)C[C@H]1NS(=O)(=O)N(C)C	-8.046%	-7.302%
Cc1nn(C)c(C)c1C1CCCN1C(=O)c1ccc2c(c1)OCCO2 (configuration not stated)	-6.764%	-6.637%
O=C(NCc1cnc2n1CCN(Cc1nccs1)CC2)C1CCC1	-15.06%	-1.504%
CCN(Cc1cn(C)nc1-c1ccc2c(c1)OCCO2)CC1CCCO1 (configuration not stated)	-10.49%	0.5652%
Cc1cc(C(=O)NC2CC(=O)N(C(C)C)C2=O)c(C)n1C(C)C (configuration not stated)	-7.243%	-9.874%
Cc1nc(CCN2CCCCC2)n(-c2ccc(F)cc2)n1	-29.65%	4.67%
c1ccc(CCc2noc(CN3CCC(N4CCSCC4)CC3)n2)cc1	-6.597%	-13.04%
O=C(c1ccsc1)N1CCc2c(COCC3CC3)cncc2C1	7.708%	-
O=C(NCc1cncc2c1CCN(Cc1cccs1)C2)C1CC1	1.467%	-14.75%
CN(Cc1cc(Br)cn1C)C(=O)Cc1cccc(O)c1	-7.181%	-11.1%
Cc1ccsc1C(=O)N1CCCn2nnc(Cn3cccn3)c2C1	-1.671%	3.615%
Cn1cc(CN2C[C@@H]3COC[C@@H](C(=O)N4CCCCO4)[C@@H]3C2)cn1	9.132%	-30.51%
CC(c1cccc(-c2ncccc2F)c1)N(C)C (configuration not stated)	-1.979%	-5.871%
O=C(CCC(=O)Nc1nnc(C(F)(F)F)s1)NCC1CCCO1 (configuration not stated)	1.427%	5.538%
Cn1cc(-c2c(C#N)c(N)nc3c2CCc2[nH]ccc2-3)cc1C#N	-576.8%	28.12%
CCOc1nnc(CN2CCCC(c3nc4ccccc4[nH]3)C2)s1 (configuration not stated)	-6.579%	39.39%
Cn1cc(CN2C[C@@H](N3CCCC3=O)[C@H]3OCCC[C@H]32)cn1	-6.97%	-12.76%
O=C(NS(=O)(=O)c1cccc(C(F)(F)F)c1)c1cscn1	-6.048%	-24.44%
Cn1ccc(C(=O)NC2CCC23CCN(C(=O)c2ccnnc2)CC3)c1 (configuration not stated)	11.72%	-1.154%
Cc1nc[nH]c1CN(C)CC1CCCN(CCc2ccc(Cl)cc2)C1 (configuration not stated)	-15.21%	-12.57%
CC(C)n1cc(CN2CCCN(C(=O)c3nccnc3N)CC2)cn1	9.186%	-1.353%
CCCn1ccnc1CN1CCCC1c1cccc(-n2ccnc2)n1 (configuration not stated)	-7.288%	-16.52%
Cc1ccc(CN2CCC3(CC(C(=O)NCC4CC4)=NO3)C2)s1 (configuration not stated)	-4.282%	-27.72%
O=C(CN1C[C@H]2C[C@H](OCc3ccccc3)C[C@H]2C1)N1CCOCC1	-17.42%	7.471%
CCCN1CCC(CC(=O)NCc2cc(C)nn2C)CC1	-4.047%	-9.729%
Cc1[nH]ccc1C(=O)N[C@H]1CN(CCO)C[C@@H]1C1CC1	0.1062%	-19.41%
CCN1CCC(CC(=O)NCc2cc(C)nn2C)CC1	-15.37%	18.18%
CCOc1ccc(Cl)c(C(=O)NC(Cc2ccccc2)C(N)=O)n1 (configuration not stated)	1.12%	-3.228%
Cc1nc(NC2CCCC2)cc(C2CCN2C(=O)c2ccccc2)n1 (configuration not stated)	-8.796%	-29.88%
CCCN1C[C@H]2CC[C@@H]1CN(C(=O)Cc1c(C)nc(CC)[nH]c1=O)C2	6.829%	-18.43%
Cn1nc(COCC2CC2)c2c1CN(C(=O)c1ccno1)CC2	-3.251%	-25.47%
NC(=O)C1CCN(C(=O)CCCc2nnc(-c3ccccc3)o2)C1 (configuration not stated)	-25.5%	-10.42%
O=C1CN(C(=O)CC2C(=O)NCCN2CC2CCCCC2)CCN1 (configuration not stated)	-15.94%	-27.15%
Cc1ccc(S(=O)(=O)N(CC2CCOC2)C2CC2)cc1N(C)C (configuration not stated)	8.47%	-54.1%
Cc1noc(C2CCN(C(=O)CCNc3ncccn3)CC2)n1	23.38%	-15.47%

Repeated from the top, 9 entries:

{"compound": "Cc1cc(C2CCCN2Cc2cc(=O)n(C)c(=O)n2C)no1", "stereo": "configuration not stated", "A": -15.41, "B": -28.47}
{"compound": "CC(C)Cc1cc(NC(=O)c2cc(Cl)c[nH]2)n(C)n1", "A": -10.29, "B": -5.999}
{"compound": "Cc1nn(CCC#N)c(C)c1CCC(=O)N(C)C", "A": 7.784}
{"compound": "NC(=O)C1CN(c2ccc3cc(Br)ccc3n2)CCO1", "stereo": "configuration not stated", "A": -17.57, "B": 3.223}
{"compound": "O=C1CN(CC2CC2)Cc2nc(NCc3ccccc3)sc21", "A": -13.08, "B": -9.378}
{"compound": "Cc1nnc2n1CCN(CC(=O)NC(C)c1cc3ccccc3o1)C2", "stereo": "configuration not stated", "A": 8.934, "B": -11.33}
{"compound": "O=C(CN1C(=O)CCC1=O)N1CCC(S(=O)(=O)Cc2ccco2)CC1", "A": -2.309, "B": -10.38}
{"compound": "O=C(CCc1cccnc1)N1CCC2(CCN(CC3CCCC3)C2)C1", "stereo": "configuration not stated", "A": 13.08, "B": -9.375}
{"compound": "O=C(c1ccncc1F)N1CCc2onc(COc3cccnc3)c2C1", "A": 6.234, "B": -571.6}

From ChEMBL document CHEMBL3988442, “University of Dundee, Small-Polar-MMV Screening Library” (2021).